The values below come from the supplement of paper PMC12067093, “Discovery and optimisation of a covalent ligand for TRIM25 and its application to targeted protein ubiquitination” (Chemical Science, 2025).

The list shows a part of the results.

Compound in the assay: Cc1cc(ccc1-c1ccccc1)C(=O)N1CCCN(CC1)C(=O)CCl [compound 10]
Briefly: probe-labelled cysteine peptide fold change vs DMSO (competition) (log2 fold change); higher = less target engagement (more negative = stronger competition). Conditions: THP-1, incubation time: 4 h.
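Note: competitive profiling in live THP-1 cells: cysteine peptides tagged with an iodoacetamide desthiobiotin (IA-DTB) probe, intensity after compound treatment relative to DMSO-treated cells.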

For “SLAIN2_Q9P270_152_SVSPLVWCR (UniProt Q9P270)”, the “probe-labelled cysteine peptide fold change” value is, setting by setting: (10 µM) -0.073; (50 µM) 0.0833.
For “SF1_Q15637_282_CGGAGHIASDCK (UniProt Q15637)” the same measures were 0.0635 and -0.0325.
For “SLC25A4_P12235_160_EFHGLGDCIIK (UniProt P12235)” the same measures were -0.0565 and -0.0685.
For “SKIV2L_Q15477_1014_KLEELIQGAQCVHSPR (UniProt Q15477)” the same measures were 0.000295 and 0.063.
As for “SLC25A12_O75746_563_AGQTTYSGVIDCFR (UniProt O75746)”, the “probe-labelled cysteine peptide fold change” value is 0.067 (10 µM) and 0.0966 (50 µM).
For the target “SHMT1_P34896_68_AVLEALGSCLNNK (UniProt P34896)”, the “probe-labelled cysteine peptide fold change” value by setting is: (10 µM) 0.0819; (50 µM) 0.0484.
For “SKIV2L_Q15477_50_AVELGCTGHWELLNLPGAPESSLPHGLPPCAPDLQQEAEQLFLSSPAWLPLHGVEHSAR (UniProt Q15477)” the same measures were 0.464 and -0.0279.
“SLC25A10_Q9UBX3_240_LMNSKGEYQGVFHCAVETAK (UniProt Q9UBX3)”: the “probe-labelled cysteine peptide fold change” value is -0.116 (10 µM) and -0.449 (50 µM).
For “SKA3_Q8IX90_147_TDVKDDLSDPPVASSCISEK (UniProt Q8IX90)” the same measures were -0.261 and -0.241.
For “SGO1_Q5FBB7_44_SFIAAPCQIITNTSTLLK (UniProt Q5FBB7)” the same measures were 0.276 and -0.542.
For “SETD1B_Q9UPS6_1912_FINHSCNPNCYAK (UniProt Q9UPS6)” the same measures were -0.216 and -0.0903.
As for “SHCBP1_Q8NEM2_426_GDTFVDCTGADIK (UniProt Q8NEM2)”, the “probe-labelled cysteine peptide fold change” value (10 µM) came to 0.00734 and the “probe-labelled cysteine peptide fold change” value (50 µM) amounted to 0.0924.
For “SH3GL1_Q99961_96_NPGYPQSEGLLGECMIR (UniProt Q99961)” the same measures were -0.0179 and -0.241.
For “SLC12A4_Q9UP95_817_CTTAAHLALLVPK (UniProt Q9UP95)” the same measures were 0.131 and 0.323.
For “SKA3_Q8IX90_126_NSVHEQEAINSDPELSNCENFQK (UniProt Q8IX90)” the same measures were 0.068 and 0.391.
For “SLC1A5_Q15758_467_SCTVLNVEGDALGAGLLQNYVDR (UniProt Q15758)”, the “probe-labelled cysteine peptide fold change” value runs as follows: (10 µM) -0.0568; (50 µM) 0.27.
On to “SETD1B_Q9UPS6_1908+1912_FINHSCNPNCYAK (UniProt Q9UPS6)”, for which the “probe-labelled cysteine peptide fold change” value is, setting by setting: (10 µM) 0.118; (50 µM) -0.0843.
For “SHPRH_Q149N8_1110_CNTEVAEAQQALYPVQQTIHELQR (UniProt Q149N8)” the same measures were 0.0924 and 0.293.
For “SLC25A19_Q9HC21_124_EFSVHFVCGGLAACMATLTVHPVDVLR (UniProt Q9HC21)” the same measures were 0.0634 and 0.0675.
For “SLC25A12_O75746_130_EIFGQTIIHHHIPFNWDCEFIR (UniProt O75746)” the same measures were 0.287 and 0.374.
Regarding “SKAP2_O75563_185_DCCFEISAPDKR (UniProt O75563)”, the “probe-labelled cysteine peptide fold change” value runs as follows: (10 µM) 0.0253; (50 µM) -0.338.
For “SLC27A3_Q5K4L6_579_DVFRPGDVFFNTGDLLVCDDQGFLR (UniProt Q5K4L6)” the same measures were -0.0141 and 0.00179.
For “SFMBT2_Q5VUG0_796_CPPTKPEGTEDTKQEEEERLVLESNPLEWTVTDVVR (UniProt Q5VUG0)” the same measures were 0.17 and 0.0601.
For “SHCBP1_Q8NEM2_271_SSLSNCNSDSEQENISMVEGLK (UniProt Q8NEM2)” the same measures were -0.214 and -0.317.
Consider “SLC27A2_O14975_149_SLLHCFQCCGAK (UniProt O14975)”, for which the “probe-labelled cysteine peptide fold change” value is -0.0436 (10 µM) and 0.0964 (50 µM).
For “SLC12A2_P55011_791_NFRPQCLVMTGAPNSRPALLHLVHDFTK (UniProt P55011)” the same measures were -0.135 and -0.136.
For “SFSWAP_Q12872_307_CNRLEELMK (UniProt Q12872)” the same measures were -0.382 and -1.12.
For “SF3B2_Q13435_661_IPGLNSPIPESCSFGYHAGGWGKPPVDETGK (UniProt Q13435)” the same measures were 0.121 and 0.304.
Consider “SLC25A12_O75746_375_NSFDCFK (UniProt O75746)”, for which the “probe-labelled cysteine peptide fold change” value by setting is: (10 µM) 0.0316; (50 µM) 0.446.
For “SKA1_Q96BD8_29_NCGQEPTLK (UniProt Q96BD8)” the same measures were -0.141 and -0.337.
Regarding “SH2D4A_Q9H788_94_EVWVWVMGEHHLDKPYDVLCNEIIAER (UniProt Q9H788)”, the “probe-labelled cysteine peptide fold change” value is, setting by setting: (10 µM) -0.0245; (50 µM) -0.0157.
For “SETDB1_Q15047_329_TWEDIEDISCR (UniProt Q15047)” the same measures were 0.197 and 0.323.
For “SETX_Q7Z333_1656_NSCNVLHPQSPNNSNR (UniProt Q7Z333)” the same measures were -0.205 and -0.146.
For “SIPA1L3_O60292_597_DALEYVIPELNIHCLR (UniProt O60292)” the same measures were 0.0406 and -0.039.
“SLC25A1_P53007_127+141_GLLCGLGAGVAEAVVVVCPMETIK (UniProt P53007)”: the “probe-labelled cysteine peptide fold change” value reads like this: (10 µM) 0.261; (50 µM) 0.15.
Turning to “SGK3_Q96BR1_308_DLKPENILLDSVGHVVLTDFGLCK (UniProt Q96BR1)”, the “probe-labelled cysteine peptide fold change” value (10 µM) was -0.16 and the “probe-labelled cysteine peptide fold change” value (50 µM) was -0.702.
For “SHMT1_P34896_335_VYQHQVVANCR (UniProt P34896)” the same measures were 0.00275 and 0.295.
